The record followed here is the supplement of paper PMC12819154, “High-throughput peptide-centric local stability assay extends protein–ligand identification to membrane proteins, tissues and bacteria” (Nature Structural & Molecular Biology, 2025).

Protein sequences, listed by entry. Tags and fused reporters are not part of them. Lines headed by an entry give the natural chain unless they say otherwise; changes in a name come on top.
UniProt Q9CYP7: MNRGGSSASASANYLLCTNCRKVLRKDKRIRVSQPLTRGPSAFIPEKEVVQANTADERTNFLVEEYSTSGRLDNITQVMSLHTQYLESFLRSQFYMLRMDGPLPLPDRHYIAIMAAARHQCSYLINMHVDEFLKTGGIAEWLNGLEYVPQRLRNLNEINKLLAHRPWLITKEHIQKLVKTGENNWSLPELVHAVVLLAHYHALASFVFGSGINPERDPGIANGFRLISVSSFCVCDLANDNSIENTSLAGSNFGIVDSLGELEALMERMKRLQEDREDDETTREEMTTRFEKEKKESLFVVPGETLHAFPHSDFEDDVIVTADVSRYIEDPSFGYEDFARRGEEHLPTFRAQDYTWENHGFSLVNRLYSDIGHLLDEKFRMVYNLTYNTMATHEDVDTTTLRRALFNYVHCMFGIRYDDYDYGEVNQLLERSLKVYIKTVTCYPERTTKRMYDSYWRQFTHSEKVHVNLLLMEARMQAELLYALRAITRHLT
UniProt Q9CRD4: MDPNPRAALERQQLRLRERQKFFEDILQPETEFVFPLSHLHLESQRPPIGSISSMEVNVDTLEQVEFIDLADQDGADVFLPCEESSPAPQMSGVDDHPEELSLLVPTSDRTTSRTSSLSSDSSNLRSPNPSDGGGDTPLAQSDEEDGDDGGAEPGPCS
UniProt Q9CWW7, whole entry: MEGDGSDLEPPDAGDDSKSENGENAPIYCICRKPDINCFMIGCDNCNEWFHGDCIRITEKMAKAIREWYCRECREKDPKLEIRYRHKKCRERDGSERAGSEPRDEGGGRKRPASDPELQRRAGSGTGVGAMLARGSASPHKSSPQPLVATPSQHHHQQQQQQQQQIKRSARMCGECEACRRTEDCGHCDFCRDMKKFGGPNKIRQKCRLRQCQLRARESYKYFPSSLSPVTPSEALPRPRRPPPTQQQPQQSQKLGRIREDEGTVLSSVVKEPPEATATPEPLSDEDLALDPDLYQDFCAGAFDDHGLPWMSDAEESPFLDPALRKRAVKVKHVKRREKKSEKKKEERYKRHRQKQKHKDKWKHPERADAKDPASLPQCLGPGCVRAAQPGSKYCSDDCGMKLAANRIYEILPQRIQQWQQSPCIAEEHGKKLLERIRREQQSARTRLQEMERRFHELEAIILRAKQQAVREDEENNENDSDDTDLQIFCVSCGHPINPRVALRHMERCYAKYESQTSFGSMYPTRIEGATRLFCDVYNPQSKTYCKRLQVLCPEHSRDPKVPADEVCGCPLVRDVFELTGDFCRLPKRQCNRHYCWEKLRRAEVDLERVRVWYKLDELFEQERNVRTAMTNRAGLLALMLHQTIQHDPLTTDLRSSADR
UniProt Q9D0E3: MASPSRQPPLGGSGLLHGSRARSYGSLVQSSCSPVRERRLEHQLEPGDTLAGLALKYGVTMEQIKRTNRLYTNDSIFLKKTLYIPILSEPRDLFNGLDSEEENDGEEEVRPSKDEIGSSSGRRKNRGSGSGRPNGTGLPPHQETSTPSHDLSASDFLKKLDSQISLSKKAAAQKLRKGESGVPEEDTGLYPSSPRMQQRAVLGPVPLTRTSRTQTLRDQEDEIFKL
UniProt Q9CSV6: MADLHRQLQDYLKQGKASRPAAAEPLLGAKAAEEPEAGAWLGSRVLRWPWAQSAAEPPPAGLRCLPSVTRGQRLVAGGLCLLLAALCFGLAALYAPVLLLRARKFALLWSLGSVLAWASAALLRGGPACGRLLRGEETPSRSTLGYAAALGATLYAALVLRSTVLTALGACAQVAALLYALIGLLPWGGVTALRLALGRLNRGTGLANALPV
UniProt Q9D0F9: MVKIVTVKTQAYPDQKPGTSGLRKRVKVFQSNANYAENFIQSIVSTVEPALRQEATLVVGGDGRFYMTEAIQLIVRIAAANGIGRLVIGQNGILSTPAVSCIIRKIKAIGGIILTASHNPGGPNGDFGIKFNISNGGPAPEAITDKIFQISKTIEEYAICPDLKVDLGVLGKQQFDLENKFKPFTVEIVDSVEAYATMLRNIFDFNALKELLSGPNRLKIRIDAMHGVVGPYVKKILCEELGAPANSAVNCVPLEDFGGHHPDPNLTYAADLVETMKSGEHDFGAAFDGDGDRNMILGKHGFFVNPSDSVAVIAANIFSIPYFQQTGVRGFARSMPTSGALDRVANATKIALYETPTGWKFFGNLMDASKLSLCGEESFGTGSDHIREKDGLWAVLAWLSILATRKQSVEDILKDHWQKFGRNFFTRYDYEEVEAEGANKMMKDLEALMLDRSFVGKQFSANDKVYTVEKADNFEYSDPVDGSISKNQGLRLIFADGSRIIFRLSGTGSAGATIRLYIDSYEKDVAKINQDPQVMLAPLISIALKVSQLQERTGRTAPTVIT
UniProt Q9CYK1: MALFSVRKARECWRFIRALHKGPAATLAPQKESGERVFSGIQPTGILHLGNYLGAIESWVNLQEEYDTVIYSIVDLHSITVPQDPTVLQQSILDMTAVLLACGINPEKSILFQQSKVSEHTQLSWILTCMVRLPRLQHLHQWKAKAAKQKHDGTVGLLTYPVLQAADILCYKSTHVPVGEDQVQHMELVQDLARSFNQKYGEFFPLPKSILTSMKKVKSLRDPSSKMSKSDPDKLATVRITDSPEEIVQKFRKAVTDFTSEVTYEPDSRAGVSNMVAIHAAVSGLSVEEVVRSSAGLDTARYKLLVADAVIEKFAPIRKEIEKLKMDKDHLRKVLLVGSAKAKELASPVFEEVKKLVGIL
UniProt Q9CZJ2: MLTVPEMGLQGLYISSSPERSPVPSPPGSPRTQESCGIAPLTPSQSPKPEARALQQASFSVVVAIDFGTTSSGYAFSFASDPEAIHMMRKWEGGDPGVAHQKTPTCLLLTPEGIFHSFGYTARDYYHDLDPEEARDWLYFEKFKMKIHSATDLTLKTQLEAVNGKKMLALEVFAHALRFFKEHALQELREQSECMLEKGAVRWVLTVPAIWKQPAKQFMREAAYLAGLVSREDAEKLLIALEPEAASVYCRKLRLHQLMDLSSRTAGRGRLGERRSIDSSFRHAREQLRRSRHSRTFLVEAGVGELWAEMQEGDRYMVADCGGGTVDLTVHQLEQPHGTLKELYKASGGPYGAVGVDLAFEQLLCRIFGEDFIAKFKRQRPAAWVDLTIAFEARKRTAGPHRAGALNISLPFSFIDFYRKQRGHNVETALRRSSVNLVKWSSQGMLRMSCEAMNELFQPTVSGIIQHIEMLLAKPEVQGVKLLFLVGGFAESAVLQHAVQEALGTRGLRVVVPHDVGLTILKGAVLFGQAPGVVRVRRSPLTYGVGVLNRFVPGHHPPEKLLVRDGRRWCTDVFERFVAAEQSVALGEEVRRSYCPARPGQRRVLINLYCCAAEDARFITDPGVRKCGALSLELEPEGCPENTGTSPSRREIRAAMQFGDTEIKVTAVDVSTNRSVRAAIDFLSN
UniProt Q9D0S9: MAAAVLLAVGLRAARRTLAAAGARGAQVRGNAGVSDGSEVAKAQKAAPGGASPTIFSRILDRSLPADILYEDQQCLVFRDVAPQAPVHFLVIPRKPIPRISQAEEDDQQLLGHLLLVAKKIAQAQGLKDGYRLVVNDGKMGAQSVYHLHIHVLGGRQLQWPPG
UniProt Q9CW42: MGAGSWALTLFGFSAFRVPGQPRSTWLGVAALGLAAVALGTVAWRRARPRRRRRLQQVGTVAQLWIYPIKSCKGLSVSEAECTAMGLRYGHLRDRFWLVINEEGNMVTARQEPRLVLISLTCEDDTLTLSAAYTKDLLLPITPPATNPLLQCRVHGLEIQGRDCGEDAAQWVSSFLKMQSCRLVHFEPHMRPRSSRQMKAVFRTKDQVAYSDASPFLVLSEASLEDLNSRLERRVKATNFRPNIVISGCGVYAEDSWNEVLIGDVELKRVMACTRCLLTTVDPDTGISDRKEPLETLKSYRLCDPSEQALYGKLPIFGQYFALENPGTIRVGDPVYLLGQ
UniProt Q9CZ44: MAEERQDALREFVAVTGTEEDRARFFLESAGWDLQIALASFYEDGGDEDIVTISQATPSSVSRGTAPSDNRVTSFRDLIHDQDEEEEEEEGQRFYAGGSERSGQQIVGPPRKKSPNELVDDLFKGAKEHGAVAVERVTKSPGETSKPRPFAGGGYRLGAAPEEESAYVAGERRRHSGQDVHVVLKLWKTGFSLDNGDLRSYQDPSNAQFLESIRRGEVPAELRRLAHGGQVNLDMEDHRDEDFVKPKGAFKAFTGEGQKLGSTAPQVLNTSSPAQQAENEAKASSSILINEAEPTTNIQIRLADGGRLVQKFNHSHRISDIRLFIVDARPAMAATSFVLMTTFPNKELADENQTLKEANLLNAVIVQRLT
UniProt Q9D0V7: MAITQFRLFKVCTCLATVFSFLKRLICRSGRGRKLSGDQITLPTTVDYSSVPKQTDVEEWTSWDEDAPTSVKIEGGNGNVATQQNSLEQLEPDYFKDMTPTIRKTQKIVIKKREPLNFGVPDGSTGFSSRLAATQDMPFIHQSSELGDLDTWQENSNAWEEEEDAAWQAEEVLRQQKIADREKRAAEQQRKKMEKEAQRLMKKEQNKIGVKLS
UniProt Q9D0R9: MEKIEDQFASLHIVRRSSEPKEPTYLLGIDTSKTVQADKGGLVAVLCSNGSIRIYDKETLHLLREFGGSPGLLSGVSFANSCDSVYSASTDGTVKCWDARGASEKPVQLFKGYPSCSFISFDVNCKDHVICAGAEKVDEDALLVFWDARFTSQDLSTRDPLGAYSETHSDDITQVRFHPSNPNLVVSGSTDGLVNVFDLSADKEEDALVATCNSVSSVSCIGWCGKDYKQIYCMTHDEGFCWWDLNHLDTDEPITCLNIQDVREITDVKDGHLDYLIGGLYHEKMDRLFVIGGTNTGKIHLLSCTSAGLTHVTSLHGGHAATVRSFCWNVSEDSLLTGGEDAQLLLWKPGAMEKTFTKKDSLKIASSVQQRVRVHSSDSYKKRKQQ
UniProt Q9CXK9: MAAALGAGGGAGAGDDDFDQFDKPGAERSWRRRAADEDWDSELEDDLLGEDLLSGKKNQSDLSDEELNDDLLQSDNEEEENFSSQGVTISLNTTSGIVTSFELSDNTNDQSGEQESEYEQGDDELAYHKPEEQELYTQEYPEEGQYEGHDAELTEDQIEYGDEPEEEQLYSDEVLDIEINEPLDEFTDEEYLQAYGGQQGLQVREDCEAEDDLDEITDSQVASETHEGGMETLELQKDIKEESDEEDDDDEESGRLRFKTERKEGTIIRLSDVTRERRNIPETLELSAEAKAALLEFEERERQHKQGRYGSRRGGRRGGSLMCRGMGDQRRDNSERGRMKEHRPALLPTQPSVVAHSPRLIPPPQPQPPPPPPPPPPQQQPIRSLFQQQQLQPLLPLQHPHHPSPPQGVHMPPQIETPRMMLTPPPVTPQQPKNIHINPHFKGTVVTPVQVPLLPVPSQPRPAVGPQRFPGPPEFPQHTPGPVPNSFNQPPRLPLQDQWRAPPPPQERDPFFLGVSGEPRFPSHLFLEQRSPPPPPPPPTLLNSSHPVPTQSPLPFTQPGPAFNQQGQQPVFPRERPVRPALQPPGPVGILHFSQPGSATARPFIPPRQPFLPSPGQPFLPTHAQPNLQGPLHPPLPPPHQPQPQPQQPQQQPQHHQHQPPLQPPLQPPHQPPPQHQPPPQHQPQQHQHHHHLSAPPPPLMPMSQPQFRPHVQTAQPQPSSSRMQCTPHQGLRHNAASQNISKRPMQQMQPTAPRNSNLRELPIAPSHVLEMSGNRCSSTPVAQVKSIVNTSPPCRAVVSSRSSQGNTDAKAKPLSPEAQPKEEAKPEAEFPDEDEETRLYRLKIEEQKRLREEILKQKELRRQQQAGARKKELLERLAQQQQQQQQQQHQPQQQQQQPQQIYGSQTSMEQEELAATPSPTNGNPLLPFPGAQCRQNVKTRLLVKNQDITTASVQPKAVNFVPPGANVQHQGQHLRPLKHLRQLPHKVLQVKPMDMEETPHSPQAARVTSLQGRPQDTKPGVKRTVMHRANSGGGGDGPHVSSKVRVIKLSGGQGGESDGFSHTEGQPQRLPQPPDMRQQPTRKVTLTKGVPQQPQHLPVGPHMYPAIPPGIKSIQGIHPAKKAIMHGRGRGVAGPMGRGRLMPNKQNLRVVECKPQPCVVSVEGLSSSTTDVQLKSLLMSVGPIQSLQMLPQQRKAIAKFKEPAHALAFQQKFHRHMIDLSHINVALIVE
UniProt Q9CZH7: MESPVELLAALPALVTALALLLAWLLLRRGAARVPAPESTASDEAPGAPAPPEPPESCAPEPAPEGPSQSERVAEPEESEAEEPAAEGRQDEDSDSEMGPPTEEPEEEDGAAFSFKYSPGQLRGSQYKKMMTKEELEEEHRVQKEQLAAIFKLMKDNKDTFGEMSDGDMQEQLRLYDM
UniProt Q9CYA0: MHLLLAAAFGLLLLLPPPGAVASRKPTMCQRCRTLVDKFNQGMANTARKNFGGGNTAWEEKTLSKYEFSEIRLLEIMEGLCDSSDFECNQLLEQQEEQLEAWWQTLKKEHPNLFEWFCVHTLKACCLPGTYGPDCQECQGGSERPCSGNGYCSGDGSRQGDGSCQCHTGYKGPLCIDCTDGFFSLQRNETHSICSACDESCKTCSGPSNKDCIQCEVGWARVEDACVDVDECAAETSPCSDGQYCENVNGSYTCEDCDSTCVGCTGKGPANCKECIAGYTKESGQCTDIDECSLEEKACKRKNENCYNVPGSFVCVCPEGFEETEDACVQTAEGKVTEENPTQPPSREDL

This is one part of the list. Most entries show no effect beyond the scatter of the controls.

Compound in the assay: CN[C@@H]1C[C@H]2O[C@@](C)([C@@H]1OC)n1c3ccccc3c3c4c(c5c6ccccc6n2c5c31)C(=O)NC4 [staurosporine]
As to the kind of experiment: log2 fold change of tryptic peptide abundance, ligand vs vehicle (limited proteolysis) (log2 ratio); higher = more trypsin-susceptible (destabilized). As to conditions: ligand concentration: 20 uM; sample: mouse liver crude lysate; replicate design: treated separately.
Consider “UniProt Q9D0L7 (peptide sequence: LANQIPFAK, peptide start residue: 260)”, for which the log2 fold change was determined as 0.151. For the target “UniProt Q9CYP7 (peptide sequence: LYSDIGHLLDEK, peptide start residue: 367)”, the log2 fold change amounted to 0.166. Turning to “UniProt Q9CRD4 (peptide sequence: TSSLSSDSSNLR, peptide start residue: 115)”, the log2 fold change is -0.188.

Consider “UniProt Q9CWW7 (peptide sequence: RPPPTQQQPQQSQK, peptide start residue: 241)”, for which the log2 fold change is -0.294. In the case of “UniProt Q9D0E3 (peptide sequence: YGVTMEQIKR, peptide start residue: 57)”, the log2 fold change came out at 0.32.

As to “UniProt Q9CXY1 (peptide sequence: LQTEEQAVDSEGDSSLHR, peptide start residue: 4)”, the log2 fold change was -0.13. As to “UniProt Q9CSV6 (peptide sequence: GGPACGRLLR, peptide start residue: 125)”, the log2 fold change was 0.155. With “UniProt Q9CW07 (peptide sequence: GAALPEQEELQEYRR, peptide start residue: 60)”, the log2 fold change is 0.159.

“UniProt Q9CX56 (peptide sequence: ILFFSTPK, peptide start residue: 293)”: the log2 fold change was -0.605. On to “UniProt Q9CZK6 (peptide sequence: GLSIHEGPR, peptide start residue: 262)”, for which the log2 fold change is -0.313. The value for “UniProt Q9D0F9 (peptide sequence: IDAMHGVVGPYVKK, peptide start residue: 222)” was -0.804; that for “UniProt Q9D0L8 (peptide sequence: LVCADIADISMK, peptide start residue: 212)” was 0.308. As for “UniProt Q9CZE3 (peptide sequence: RYVHQLFSQHYR, peptide start residue: 42)”, the log2 fold change was 0.557. For the target “UniProt Q9D0B6 (peptide sequence: LISSVDPQFLK, peptide start residue: 53)”, the log2 fold change is -0.354. To “UniProt Q9CR98 (peptide sequence: KMQGLMFR, peptide start residue: 27)” belongs 0.141; to “UniProt Q9D0M3 (peptide sequence: KLAYRPPK, peptide start residue: 318)”, -0.235. As for “UniProt Q9CXI3 (peptide sequence: YWLHWGR, peptide start residue: 37)”, the log2 fold change is 0.51.

Turning to “UniProt Q9CYK1 (peptide sequence: YGEFFPLPK, peptide start residue: 200)”, the log2 fold change is -0.461.

For the target “UniProt Q9D0K0 (peptide sequence: MYQLESGKLPR, peptide start residue: 111)”, the log2 fold change worked out at 0.236. The value for “UniProt Q9CZJ2 (peptide sequence: LHQLMDLSSR, peptide start residue: 255)” was 0.398. For “UniProt Q9D0F4 (peptide sequence: NGLSHSLSGFSQSSR, peptide start residue: 52)”, the log2 fold change is -0.166. Turning to “UniProt Q9D0S9 (peptide sequence: KIAQAQGLK, peptide start residue: 120)”, the log2 fold change was -0.163. “UniProt Q9CY66 (peptide sequence: FLPRPPGEK, peptide start residue: 168)”: the log2 fold change was 0.141. With “UniProt Q9D113 (peptide sequence: VEADHYQLVYTCK, peptide start residue: 68)”, the log2 fold change is -0.0234. For the target “UniProt Q9CW42 (peptide sequence: RRLQQVGTVAQLWIYPIK, peptide start residue: 53)”, the log2 fold change is 0.256. For “UniProt Q9D071 (peptide sequence: ETLPLLLQHLCQANK, peptide start residue: 572)”, the log2 fold change was 0.303. With “UniProt Q9CZ44 (peptide sequence: EANLLNAVIVQR, peptide start residue: 357)”, the log2 fold change was -0.519. For the target “UniProt Q9D0V7 (peptide sequence: REPLNFGVPDGSTGFSSR, peptide start residue: 113)”, the log2 fold change is -0.416. For “UniProt Q9CRB6 (peptide sequence: VINYEEFKK, peptide start residue: 69)”, the log2 fold change was 0.349. In the case of “UniProt Q9D0J8 (peptide sequence: TAEEEDEADPKRQK, peptide start residue: 81)”, the log2 fold change is -0.813.

Turning to “UniProt Q9D0R9 (peptide sequence: IEDQFASLHIVR, peptide start residue: 4)”, the log2 fold change stood at 0.482. For “UniProt Q9D0M1 (peptide sequence: IYVMATHGILSAEAPR, peptide start residue: 280)”, the log2 fold change is 0.3. As for “UniProt Q9CXK9 (peptide sequence: LPQPPDMR, peptide start residue: 1071)”, the log2 fold change is -0.397. With “UniProt Q9CZH7 (peptide sequence: EELEEEHR, peptide start residue: 134)”, the log2 fold change was found to be 0.325. To “UniProt Q9CYA0 (peptide sequence: YEFSEIR, peptide start residue: 66)” belongs 0.126.
